Laboratory results as given in patent US8377640B2, “Diagnostic screens for Alzheimer's disease” (ISIS Innovation Ltd., priority 2001, dated 2013).
For at least one compound, name, drawing or mass did not settle the structure.

How the values were obtained:
cultured lymphocytes [1] = test: Relative lengthening of the G1 phase (BrdU incorporation, FACS) in PHA-activated lymphocyte cultures treated with rapamycin; format: cell-based, human; settings: 100 ng/ml rapamycin; AD and ADM patients versus control, DNOS, possAD
Protocol: A first set of experiments was carried out on 49 subjects (Table 1A), whilst a second set of experiments was carried out on 55 subjects (Table 1B). In the first set of experiments (49 subjects) two parallel lymphocyte cultures were set up from every individual in RPMI medium supplemented with 10% FCS at a concentration of 1×10^6 cells per 1 ml of culture media. Phytohaemaglutinin (PHA) was added to the cultures at a final concentration of 22 μg/ml to activate the lymphocytes. Cultures were incubated for 48 hours at 37° C. in a humidified atmosphere containing 5% CO2. […] BrdU incorporation was assessed using immunohistochemistry followed by FACS analysis. The proportion of cells in various phases of the cell cycle was determined and data transformation performed to obtain the relative lengthening of the G1 phase (FIG. 1).
The calculations (relative lengthening of the G1 phase of the cell cycle in treated cultures relative to control cultures) were based on the assumptions that cells were in the exponential phase of proliferation and that the growth fraction in the cultures (ratio of dividing cells versus quiescent cells) was 1.0 (5). […] Based on these assumptions the relative lengthening of the G1 phase was calculated using the formula: RL=100f-100 (expressed in percent). […]

cultured lymphocytes [2] = test: MTT survival assay of PHA-activated lymphocyte cultures, treated versus control; format: cell-based, human; settings: 100 ng/ml rapamycin, 24 h; AD and poss AD versus control cultures
Protocol: In the second set of experiments (53 subjects) after an initial 48 hours incubation (as above) four separate cultures were set up. Control cultures were left without any treatment, one set of cultures was treated with 100 ng/ml rapamycin, the third set was treated with 1 μM doxorubicin while the fourth set was treated with 120 μM H2O2. Doxorubicin induces DNA damage, leading to arrest at G2/M, rather than G1/S. H2O2 treatment produces oxidative stress, leading to a reversible and temporary cell cycle arrest at G1/S.
After 20 hours of incubation a 4 hour long MTT survival assay (Chemicon International Ltd) was set up. Results were read using a microplate reader (570 filter; 630 reference filter). The ratio between cell numbers in treated cultures versus controls was expressed as percent.

SMILES: CO[C@H]1C[C@@H]2CC[C@@H](C)[C@@](O)(O2)C(=O)C(=O)N2CCCC[C@H]2C(=O)O[C@H]([C@H](C)C[C@@H]2CC[C@@H](O)[C@H](OC)C2)CC(=O)[C@H](C)/C=C(\C)[C@@H](O)[C@@H](OC)C(=O)[C@H](C)C[C@H](C)/C=C/C=C/C=C/1C [rapamycin]
- Effectiveness of G1 block (relative lengthening of G1 phase) (cultured lymphocytes [1]): significantly less effective G1 block than control subjects
- Cell numbers after treatment (treated versus control cultures) (cultured lymphocytes [2]): higher cell numbers in AD and poss AD cultures, as compared to control cultures
